Test system: Male Wistar rats
Assay: Diuretic activity (oral, saline-loaded rats)
Assay type: in vivo, rat
Details: 25 mg/kg, 6 hours, relative to control
Protocol: Male Wistar rats weighing 150 to 300 g were fasted for 18 hours. A test compound and saline (25 ml/kg) were orally administered to the test rats and only saline was administered to the control rats. Then, urine was collected for 6 hours. The test was carried out using 3 groups of animals per test compound, each group consisting of 3 animals. The volume of the urine was measured by using a measuring cylinder and electrolytes (Na^+ and K^+) in the urine were assayed with a flame photometer (Model […] manufactured by Hitachi Ltd.). The parameters in Table 3 are all expressed by relative value to the control.

NS(=O)(=O)c1cc(C(=O)O)c(NCc2ccco2)cc1Cl [Furosemide, reference compound]
Increase in K+ excretion: 57%
Increase in Na+ excretion: 64%

From US5342841A, “Xanthine derivatives” (Kyowa Hakko Kogyo Co., Ltd., priority 1992, dated 1994)
